In paper PMC4973933:
Numbering of substitutions follows the chain as printed. These are yes or no findings as the source states them, for the method shown. Binding can be weak; no strength is given.

B1: eIF4E1 encoded by the pvr2^+ allele (pvr2/eIF4E1) (protein, UniProt A0A1U8GR65 1-228)
chain: MATAEMEKTTTFDEAEKVKLNANEADDEVEEGEIVEETDDTTSYLSKEIATKHPLEHSWTFWFDNPVAKSKQAAWGSSLRNVYTFSTVEDFWGAYNNIHHPSKLVVGADLHCFKHKIEPKWEDPVCANGGTWKMSFSKGKSDTSWLYTLLAMIGHQFDHEDEICGAVVSVRGKGEKISLWTKNAANETAQVSIGKQWKQFLDYSDSVGFIFHDDAKRLDRNAKNRYTV
B2: eIF4E1 encoded by the pvr2^4 allele (pvr2/eIF4E1) (protein, UniProt A0A1U8GR65 1-228)
chain: B1 chain with V67E
B3: eIF4E1 encoded by the pvr2^23 allele (pvr2/eIF4E1) (protein, UniProt A0A1U8GR65 1-228)
chain: B1 chain with A68E

Target: VPg of Potato virus Y, avirulent isolate LYE84 (Potato virus Y (isolate LYE84))
Experiment: two-hybrid; Matchmaker GAL4 two-hybrid system 3; eIF4E1 variants fused to the GAL4 activation domain (pGADT7, AH109), VPg fused to the GAL4 binding domain (pGBKT7, Y187); after mating, growth on -LWH medium at 30°C, checked 2 to 7 days after spotting; growth as percent of pvr2^+ with VPg-PVY

**Q.** How did the binding turn out when B1 was run?
**A.** binds

**Q.** For B2, which binding is on record?
**A.** no binding

**Q.** How did the binding turn out when B3 was run?
**A.** no binding

Target: VPg of Tobacco etch virus, avirulent isolate HAT (Tobacco etch virus (isolate HAT))
Experiment: as above

**Q.** B1 was tested. Which binding did it give?
**A.** binds

**Q.** For B2, which binding is on record?
**A.** binds

**Q.** B3 was tested. Which binding did it give?
**A.** binds
